Experimental data taken from publication PMC11111408, “Concurrent inhibition of oncogenic and wild-type RAS-GTP for cancer therapy” (Nature, 2024).
“And” between values parts separate entries of the source, which are not always exact repeats. Equal values may be shown once. This continues a long series; more values of the same kind are listed elsewhere.

Experiment: Body weight and tolerability of tumour bearing mice
Conditions: individual animals

CCn1c(-c2cc(N3CCN(C4CC4)CC3)cnc2[C@H](C)OC)c2c3cc(ccc31)-c1csc(n1)C[C@H](NC(=O)[C@H]1[C@@H]3COC[C@@H]31)C(=O)N1CCC[C@H](N1)C(=O)OCC(C)(C)C2 [RMC-7977]
% Body Weight Change (CRC039, RMC-7977 10 mg/kg po qd, day 0 on study): 0.00%
% Body Weight Change (CRC039, RMC-7977 10 mg/kg po qd, day 4 on study, 10 mg/kg): -1.45% and 1.00% and 0.00%
% Body Weight Change (CRC039, RMC-7977 10 mg/kg po qd, day 7 on study, 10 mg/kg): -1.45% and -2.49% and -0.86%
% Body Weight Change (CRC039, RMC-7977 10 mg/kg po qd, day 11 on study, 10 mg/kg): -3.38% and -1.49% and -3.88%
% Body Weight Change (CRC039, RMC-7977 10 mg/kg po qd, day 14 on study, 10 mg/kg): -3.38% and -0.50% and -4.31%
% Body Weight Change (CRC039, RMC-7977 10 mg/kg po qd, day 18 on study, 10 mg/kg): -2.42% and 1.00% and -1.29%
% Body Weight Change (CRC039, RMC-7977 10 mg/kg po qd, day 21 on study, 10 mg/kg): -3.38% and -0.50% and -2.59%
% Body Weight Change (CRC039, RMC-7977 10 mg/kg po qd, day 25 on study, 10 mg/kg): -1.93% and -0.50% and -1.29%
% Body Weight Change (CRC039, RMC-7977 10 mg/kg po qd, day 28 on study, 10 mg/kg): -4.35% and -1.00% and -1.29%
% Body Weight Change (CRC G12D model, RMC-7977 10 mg/kg po qd, day 0 on study): 0%
% Body Weight Change (CRC G12D model, RMC-7977 10 mg/kg po qd, day 3 on study, 10 mg/kg): -12.5% and -10% and -8.696% (2×) and 0%
% Body Weight Change (CRC G12D model, RMC-7977 10 mg/kg po qd, day 7 on study, 10 mg/kg): -20.8333% and -10% and -13.0435% (2×) and 0%
% Body Weight Change (CRC G12D model, RMC-7977 10 mg/kg po qd, day 10 on study, 10 mg/kg): -20.8333% and -10% and -17.3913% and -21.7391% and -4.167%
% Body Weight Change (CRC G12D model, RMC-7977 10 mg/kg po qd, day 14 on study, 10 mg/kg): -20.8333% and -10% and -17.3913% (2×) and -4.167%
% Body Weight Change (CRC G12D model, RMC-7977 10 mg/kg po qd, day 17 on study, 10 mg/kg): -20.8333% and -15% and -21.7391% (2×) and -8.333%
% Body Weight Change (CRC G12D model, RMC-7977 10 mg/kg po qd, day 20 on study, 10 mg/kg): -16.6667% and -10% and -17.3913% (2×) and -8.333%
% Body Weight Change (CRC G12D model, RMC-7977 10 mg/kg po qd, day 23 on study, 10 mg/kg): -20.8333% and -15% and -21.7391% (2×) and -12.5%
% Body Weight Change (CRC G12D model, RMC-7977 10 mg/kg po qd, day 27 on study, 10 mg/kg): -16.6667% and -10% and -17.3913% (2×) and -12.5%
% Body Weight Change (CRC G12S, RMC-7977 10 mg/kg po qd, day 0 on study): 0%
% Body Weight Change (CRC G12S, RMC-7977 10 mg/kg po qd, day 3 on study, 10 mg/kg): 0% (4×) and -4.348%
% Body Weight Change (CRC G12S, RMC-7977 10 mg/kg po qd, day 7 on study, 10 mg/kg): 4.7619% and 0% (3×) and 4.348%
% Body Weight Change (CRC G12S, RMC-7977 10 mg/kg po qd, day 10 on study, 10 mg/kg): 9.524% and 0% (2×) and 4.348% and -4.348%
% Body Weight Change (CRC G12S, RMC-7977 10 mg/kg po qd, day 14 on study, 10 mg/kg): 4.7619% and 0% (2×) and 4.348% and -4.348%
% Body Weight Change (CRC G12S, RMC-7977 10 mg/kg po qd, day 17 on study, 10 mg/kg): 4.7619% and 0% (2×) and 4.348% and -17.3913%
% Body Weight Change (CRC G12S, RMC-7977 10 mg/kg po qd, day 20 on study, 10 mg/kg): 4.7619% and 4.545% and 4.348% and -8.696% and 4%
% Body Weight Change (CRC G12S, RMC-7977 10 mg/kg po qd, day 23 on study, 10 mg/kg): 0% (4×) and 4%
% Body Weight Change (CRC G12S, RMC-7977 10 mg/kg po qd, day 27 on study, 10 mg/kg): 9.524% and 4.545% and 4.348% (2×) and 4%
% Body Weight Change (CRC G12V, RMC-7977 10 mg/kg po qd, day 0 on study): 0.00%
% Body Weight Change (CRC G12V, RMC-7977 10 mg/kg po qd, day 4 on study, 10 mg/kg): 4.55% and 0.00% (4×)
% Body Weight Change (CRC G12V, RMC-7977 10 mg/kg po qd, day 7 on study, 10 mg/kg): 0.00% (4×) and 4.17%
% Body Weight Change (CRC G12V, RMC-7977 10 mg/kg po qd, day 11 on study, 10 mg/kg): 0.00% (3×) and -3.85% and 4.17%
% Body Weight Change (CRC G12V, RMC-7977 10 mg/kg po qd, day 14 on study, 10 mg/kg): 0.00% (2×) and -7.69% and 4.17% and -4.55%
% Body Weight Change (CRC G12V, RMC-7977 10 mg/kg po qd, day 18 on study, 10 mg/kg): 4.55% and -3.85% and 8.33% and 4.35% and 0.00%
% Body Weight Change (CRC G12V, RMC-7977 10 mg/kg po qd, day 21 on study, 10 mg/kg): 0.00% (2×) and -19.23% and 4.17% and -4.55%
% Body Weight Change (CRC G12V, RMC-7977 10 mg/kg po qd, day 25 on study, 10 mg/kg): 0.00% and -15.38% and 8.33% and -4.35% and -4.55%
% Body Weight Change (CRC G12V, RMC-7977 10 mg/kg po qd, day 28 on study, 10 mg/kg): 0.00% (2×) and -15.38% and 8.33% and -4.55%
% Body Weight Change (HPAC, RMC-7977 10 mg/kg po qd, day 0 on study): 0%
% Body Weight Change (HPAC, RMC-7977 10 mg/kg po qd, day 7 on study, 10 mg/kg): -5.988% and -0.4904% and 1.904% and 10.6566% and -20.6127% and 0.1898% and -1.319% and -1.193% and 4.667% and -7.53% and -2.84% and -1.167% and -5.198% and -3.326% and -1.3805% and 0.3422% and -2.984% and -0.3567%
% Body Weight Change (HPAC, RMC-7977 10 mg/kg po qd, day 14 on study, 10 mg/kg): -1.796% and 6.687% and 3.958% and 12.5758% and -7.702% and 2.848% and 3.908% and 5.022% and 9.583% and -2.151% and -3.848% and -1.667% and -5.156% and -8.47% and 0.906% and -4.021% and -0.6143% and 2.051%
% Body Weight Change (HPAC, RMC-7977 10 mg/kg po qd, day 21 on study, 10 mg/kg): 1.597% and 6.286% and 2.104% and 15.3535% and -4.726% and 0.8543% and 2.198% and 2.238% and 9.732% and -3.227% and -4.214% and 0.5833% and -11.3514% and -9.978% and 0.8197% and -4.32% and 1.624% and 2.452%
% Body Weight Change (HPAC, RMC-7977 10 mg/kg po qd, day 28 on study, 10 mg/kg): 0.3493% and 0% and 2.705% and 17.5758% and -3.72% and -0.04746% and 1.075% and 6.464% and 4.866% and -4.217% and -4.902% and -0.2917% and -9.73% and -9.933% and 1.682% and -0.1711% and 2.326% and 5.216%
% Body Weight Change (Hup-T3, RMC-7977 10 mg/kg po qd, day 0 on study): 0.00%
% Body Weight Change (Hup-T3, RMC-7977 10 mg/kg po qd, day 3 on study, 10 mg/kg): -1.37% and -1.45% and -1.74% and -0.43% and 2.16%
% Body Weight Change (Hup-T3, RMC-7977 10 mg/kg po qd, day 7 on study, 10 mg/kg): 4.11% and 3.38% and 0.43% and 3.00% and 3.03%
% Body Weight Change (Hup-T3, RMC-7977 10 mg/kg po qd, day 10 on study, 10 mg/kg): 0.00% and 0.48% and -0.87% and 3.86% and 2.16%
% Body Weight Change (Hup-T3, RMC-7977 10 mg/kg po qd, day 14 on study, 10 mg/kg): -1.37% and -1.93% and -0.43% and -1.72% and -1.73%
% Body Weight Change (Hup-T3, RMC-7977 10 mg/kg po qd, day 17 on study, 10 mg/kg): 1.37% and -1.93% and 6.09% and 6.01% and 4.33%
% Body Weight Change (Hup-T3, RMC-7977 10 mg/kg po qd, day 21 on study, 10 mg/kg): -1.83% and -3.86% and 7.39% and 2.58% and 1.30%
% Body Weight Change (Hup-T3, RMC-7977 10 mg/kg po qd, day 24 on study, 10 mg/kg): -4.57% and -3.38% and 8.26% and 1.29% and -2.16%
% Body Weight Change (Hup-T3, RMC-7977 10 mg/kg po qd, day 28 on study, 10 mg/kg): -2.74% and 0.00% and 6.09% and 7.73% and 0.87%
% Body Weight Change (LUAD G12C model, RMC-7977 10 mg/kg po qd, day 0 on study): 0.00%
% Body Weight Change (LUAD G12C model, RMC-7977 10 mg/kg po qd, day 4 on study, 10 mg/kg): -4.17% and 0.00% (3×) and -3.85%
% Body Weight Change (LUAD G12C model, RMC-7977 10 mg/kg po qd, day 7 on study, 10 mg/kg): -4.17% and 0.00% and -7.69% and -3.85% and -4.35%
% Body Weight Change (LUAD G12C model, RMC-7977 10 mg/kg po qd, day 12 on study, 10 mg/kg): -8.33% and 4.35% and -7.69% (2×) and 0.00%
% Body Weight Change (LUAD G12C model, RMC-7977 10 mg/kg po qd, day 19 on study, 10 mg/kg): -4.17% and 0.00% and -3.85% (2×) and -4.35%
% Body Weight Change (LUAD G12C model, RMC-7977 10 mg/kg po qd, day 22 on study, 10 mg/kg): -4.17% and 4.35% and 0.00% (2×) and -3.85%
% Body Weight Change (LUAD G12C model, RMC-7977 10 mg/kg po qd, day 26 on study, 10 mg/kg): -4.17% and 0.00% (4×)
